Measured values published in patent US20130058962A1 (published 2013).
Results are given in words; binding and its absence hold for the method and conditions named. Some binding calls cover weakened binding; strength is not graded here.

Amino acid sequences for entries named in this document (tags omitted). Residues count along the entry.
UniProt P0DPI1, residues 2-448: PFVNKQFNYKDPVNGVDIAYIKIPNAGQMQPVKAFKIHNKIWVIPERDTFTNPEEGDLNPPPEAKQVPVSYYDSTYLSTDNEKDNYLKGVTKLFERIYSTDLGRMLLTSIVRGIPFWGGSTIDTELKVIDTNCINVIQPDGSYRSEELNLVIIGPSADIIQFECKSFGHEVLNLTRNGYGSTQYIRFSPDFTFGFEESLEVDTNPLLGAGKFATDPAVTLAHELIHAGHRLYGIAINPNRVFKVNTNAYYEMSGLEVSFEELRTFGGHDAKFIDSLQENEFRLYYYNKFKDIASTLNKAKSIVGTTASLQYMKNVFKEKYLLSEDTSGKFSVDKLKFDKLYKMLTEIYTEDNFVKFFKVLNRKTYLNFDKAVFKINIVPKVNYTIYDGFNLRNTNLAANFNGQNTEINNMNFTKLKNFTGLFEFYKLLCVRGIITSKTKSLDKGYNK

Target: purified recombinant BoNT/A light chain (Clostridium botulinum) (UniProt P0DPI1)
Assay: ELISA on BoNT subunits / Western blot of reduced holotoxin

B1: ciA-D12 (VHH)
VHH: QVQLVESGGGLVQPGGSLRLSCVVSGSDFNTYIMGWYRQVPGKPRELVADITTEGKTNYGGSVKGRFTISRDNAKNTVYLQMFGLKPEDAGNYVCNADWKMGAWTAGDYGIDYWGKGTLVTVSS
  binding: binds
